From article PMC4906169
No constants are given. Whether binding was seen depends on the method and setting. Some binding calls cover weakened binding; strength is not graded here. Sequences can lack the tags named with a protein.

T1: STELLO1 (STL1), split-ubiquitin fusion in yeast (Arabidopsis thaliana) (UniProt O22943)
T1 sequence: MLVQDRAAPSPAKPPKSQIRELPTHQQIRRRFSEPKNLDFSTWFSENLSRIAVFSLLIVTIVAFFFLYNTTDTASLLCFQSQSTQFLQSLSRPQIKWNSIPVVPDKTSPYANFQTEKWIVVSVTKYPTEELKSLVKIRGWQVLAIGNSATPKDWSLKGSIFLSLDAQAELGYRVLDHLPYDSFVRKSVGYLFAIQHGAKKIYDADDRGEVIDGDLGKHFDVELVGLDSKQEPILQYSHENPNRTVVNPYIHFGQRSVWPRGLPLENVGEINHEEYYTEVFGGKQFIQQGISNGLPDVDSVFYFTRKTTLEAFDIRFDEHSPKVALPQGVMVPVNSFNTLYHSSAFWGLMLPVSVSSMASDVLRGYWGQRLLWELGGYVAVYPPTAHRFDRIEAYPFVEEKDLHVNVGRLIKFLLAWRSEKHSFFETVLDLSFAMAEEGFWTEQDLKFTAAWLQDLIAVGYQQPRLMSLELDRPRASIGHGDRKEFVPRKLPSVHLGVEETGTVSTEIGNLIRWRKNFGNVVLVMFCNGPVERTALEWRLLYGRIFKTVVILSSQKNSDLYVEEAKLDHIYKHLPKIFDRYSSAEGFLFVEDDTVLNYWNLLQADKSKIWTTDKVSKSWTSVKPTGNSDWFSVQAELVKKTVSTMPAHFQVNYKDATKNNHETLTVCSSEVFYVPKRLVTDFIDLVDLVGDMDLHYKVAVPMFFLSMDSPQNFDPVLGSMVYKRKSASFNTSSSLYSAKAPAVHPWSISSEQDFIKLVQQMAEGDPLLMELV

T2: STELLO2 (STL2), split-ubiquitin fusion in yeast (Arabidopsis thaliana) (UniProt Q9SCN0)
T2 sequence: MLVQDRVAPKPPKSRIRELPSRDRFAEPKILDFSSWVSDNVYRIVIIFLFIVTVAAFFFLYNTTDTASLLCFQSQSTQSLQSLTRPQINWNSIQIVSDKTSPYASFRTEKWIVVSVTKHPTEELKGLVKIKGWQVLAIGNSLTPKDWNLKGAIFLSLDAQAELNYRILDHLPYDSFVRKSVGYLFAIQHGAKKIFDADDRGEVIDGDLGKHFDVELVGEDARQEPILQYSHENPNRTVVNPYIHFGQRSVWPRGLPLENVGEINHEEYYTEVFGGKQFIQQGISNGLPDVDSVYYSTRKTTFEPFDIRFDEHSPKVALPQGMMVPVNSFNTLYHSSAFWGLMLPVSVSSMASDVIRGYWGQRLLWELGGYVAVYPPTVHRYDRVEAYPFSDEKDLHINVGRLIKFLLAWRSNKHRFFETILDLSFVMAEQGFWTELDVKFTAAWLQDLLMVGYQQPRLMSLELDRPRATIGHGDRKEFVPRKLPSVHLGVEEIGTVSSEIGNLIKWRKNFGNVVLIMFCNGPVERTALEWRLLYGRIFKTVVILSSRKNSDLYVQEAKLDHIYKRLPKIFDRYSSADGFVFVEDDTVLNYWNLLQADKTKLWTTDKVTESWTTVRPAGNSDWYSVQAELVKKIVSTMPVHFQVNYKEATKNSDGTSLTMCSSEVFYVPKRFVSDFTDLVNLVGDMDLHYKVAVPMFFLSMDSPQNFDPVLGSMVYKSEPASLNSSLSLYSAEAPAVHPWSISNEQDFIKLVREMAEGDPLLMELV


Legend:
[1] = biological target: T1, STELLO1 (STL1), split-ubiquitin fusion in yeast (Arabidopsis thaliana); assay: two-hybrid; split-ubiquitin membrane yeast two-hybrid (MbYTH); STLs as bait (pTFB1), NubG preys (pADSL-Nx); yeast strain NYM51; growth of at least 50 spotted colonies after 4 days at 28 °C on SD lacking Leu, Trp, His and Ade with 150 mM 3-ammonium-triazole
[2] = biological target: T2, STELLO2 (STL2), split-ubiquitin fusion in yeast (Arabidopsis thaliana); assay: as above

binding [1] | binding [2] | Binder
binds | binds | STELLO1 (STL1), split-ubiquitin fusion in yeast (protein, UniProt O22943 1-771) MLVQDRAAPSPAKPPKSQIRELPTHQQIRRRFSEPKNLDFSTWFSENLSRIAVFSLLIVTIVAFFFLYNTTDTASLLCFQSQSTQFLQSLSRPQIKWNSIPVVPDKTSPYANFQTEKWIVVSVTKYPTEELKSLVKIRGWQVLAIGNSATPKDWSLKGSIFLSLDAQAELGYRVLDHLPYDSFVRKSVGYLFAIQHGAKKIYDADDRGEVIDGDLGKHFDVELVGLDSKQEPILQYSHENPNRTVVNPYIHFGQRSVWPRGLPLENVGEINHEEYYTEVFGGKQFIQQGISNGLPDVDSVFYFTRKTTLEAFDIRFDEHSPKVALPQGVMVPVNSFNTLYHSSAFWGLMLPVSVSSMASDVLRGYWGQRLLWELGGYVAVYPPTAHRFDRIEAYPFVEEKDLHVNVGRLIKFLLAWRSEKHSFFETVLDLSFAMAEEGFWTEQDLKFTAAWLQDLIAVGYQQPRLMSLELDRPRASIGHGDRKEFVPRKLPSVHLGVEETGTVSTEIGNLIRWRKNFGNVVLVMFCNGPVERTALEWRLLYGRIFKTVVILSSQKNSDLYVEEAKLDHIYKHLPKIFDRYSSAEGFLFVEDDTVLNYWNLLQADKSKIWTTDKVSKSWTSVKPTGNSDWFSVQAELVKKTVSTMPAHFQVNYKDATKNNHETLTVCSSEVFYVPKRLVTDFIDLVDLVGDMDLHYKVAVPMFFLSMDSPQNFDPVLGSMVYKRKSASFNTSSSLYSAKAPAVHPWSISSEQDFIKLVQQMAEGDPLLMELV
binds | binds | Cellulose synthase CesA8, NubG prey fusion in yeast (protein, UniProt Q8LPK5 1-985) MMESRSPICNTCGEEIGVKSNGEFFVACHECSFPICKACLEYEFKEGRRICLRCGNPYDENVFDDVETKTSKTQSIVPTQTNNTSQDSGIHARHISTVSTIDSELNDEYGNPIWKNRVESWKDKKDKKSKKKKKDPKATKAEQHEAQIPTQQHMEDTPPNTESGATDVLSVVIPIPRTKITSYRIVIIMRLIILALFFNYRITHPVDSAYGLWLTSVICEIWFAVSWVLDQFPKWSPINRETYIDRLSARFEREGEQSQLAAVDFFVSTVDPLKEPPLITANTVLSILALDYPVDKVSCYVSDDGAAMLSFESLVETADFARKWVPFCKKYSIEPRAPEFYFSLKIDYLRDKVQPSFVKERRAMKRDYEEFKIRMNALVAKAQKTPEEGWTMQDGTSWPGNNTRDHPGMIQVFLGYSGARDIEGNELPRLVYVSREKRPGYQHHKKAGAENALVRVSAVLTNAPFILNLDCDHYVNNSKAVREAMCFLMDPVVGQDVCFVQFPQRFDGIDKSDRYANRNIVFFDVNMRGLDGIQGPVYVGTGTVFRRQALYGYSPPSKPRILPQSSSSSCCCLTKKKQPQDPSEIYKDAKREELDAAIFNLGDLDNYDEYDRSMLISQTSFEKTFGLSTVFIESTLMENGGVPDSVNPSTLIKEAIHVISCGYEEKTEWGKEIGWIYGSITEDILTGFKMHCRGWRSIYCMPLRPAFKGSAPINLSDRLHQVLRWALGSVEIFLSRHCPLWYGCSGGRLKLLQRLAYINTIVYPFTSLPLVAYCTLPAICLLTGKFIIPTLSNLASMLFLGLFISIILTSVLELRWSGVSIEDLWRNEQFWVIGGVSAHLFAVFQGFLKMLAGLDTNFTVTSKTADDLEFGELYIVKWTTLLIPPTSLLIINLVGVVAGFSDALNKGYEAWGPLFGKVFFAFWVILHLYPFLKGLMGRQNRTPTIVILWSILLASVFSLVWVRINPFVSKTDTTSLSLNCLLIDC
